Source: the supplement of paper PMC10849652
The list shows a part of the results.

The chains behind the UniProt entries cited, without tags or fusion partners. Where a name states a change or a piece, a line headed by the entry shows the natural chain unless it says otherwise.
UniProt P0C7P0: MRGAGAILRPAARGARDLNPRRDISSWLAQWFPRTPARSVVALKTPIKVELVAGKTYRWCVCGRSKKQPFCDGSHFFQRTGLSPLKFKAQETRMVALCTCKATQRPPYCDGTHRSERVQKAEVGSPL
UniProt Q9UFF9, whole entry, looked up: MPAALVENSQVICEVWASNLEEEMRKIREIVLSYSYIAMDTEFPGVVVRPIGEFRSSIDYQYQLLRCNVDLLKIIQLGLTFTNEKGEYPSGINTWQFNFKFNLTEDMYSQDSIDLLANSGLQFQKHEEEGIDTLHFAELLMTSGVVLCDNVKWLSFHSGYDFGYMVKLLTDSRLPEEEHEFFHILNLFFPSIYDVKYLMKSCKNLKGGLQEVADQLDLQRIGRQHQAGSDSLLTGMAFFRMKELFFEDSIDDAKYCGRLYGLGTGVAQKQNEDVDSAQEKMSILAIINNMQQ
UniProt Q9Y2R0: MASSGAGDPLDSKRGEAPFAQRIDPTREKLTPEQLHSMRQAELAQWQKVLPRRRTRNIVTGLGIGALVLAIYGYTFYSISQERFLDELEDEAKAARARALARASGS
UniProt P09543: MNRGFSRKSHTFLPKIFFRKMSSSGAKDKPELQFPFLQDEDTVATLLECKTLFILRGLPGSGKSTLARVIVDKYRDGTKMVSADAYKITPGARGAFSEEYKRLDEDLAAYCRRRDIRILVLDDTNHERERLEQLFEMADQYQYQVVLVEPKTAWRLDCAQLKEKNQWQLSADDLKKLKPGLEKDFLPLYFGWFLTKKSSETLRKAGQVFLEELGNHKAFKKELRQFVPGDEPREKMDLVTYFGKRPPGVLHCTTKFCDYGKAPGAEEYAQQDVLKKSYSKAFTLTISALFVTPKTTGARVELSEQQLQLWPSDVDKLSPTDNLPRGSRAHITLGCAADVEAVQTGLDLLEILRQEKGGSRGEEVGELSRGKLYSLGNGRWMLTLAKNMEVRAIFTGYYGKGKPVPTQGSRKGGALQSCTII
UniProt P39059: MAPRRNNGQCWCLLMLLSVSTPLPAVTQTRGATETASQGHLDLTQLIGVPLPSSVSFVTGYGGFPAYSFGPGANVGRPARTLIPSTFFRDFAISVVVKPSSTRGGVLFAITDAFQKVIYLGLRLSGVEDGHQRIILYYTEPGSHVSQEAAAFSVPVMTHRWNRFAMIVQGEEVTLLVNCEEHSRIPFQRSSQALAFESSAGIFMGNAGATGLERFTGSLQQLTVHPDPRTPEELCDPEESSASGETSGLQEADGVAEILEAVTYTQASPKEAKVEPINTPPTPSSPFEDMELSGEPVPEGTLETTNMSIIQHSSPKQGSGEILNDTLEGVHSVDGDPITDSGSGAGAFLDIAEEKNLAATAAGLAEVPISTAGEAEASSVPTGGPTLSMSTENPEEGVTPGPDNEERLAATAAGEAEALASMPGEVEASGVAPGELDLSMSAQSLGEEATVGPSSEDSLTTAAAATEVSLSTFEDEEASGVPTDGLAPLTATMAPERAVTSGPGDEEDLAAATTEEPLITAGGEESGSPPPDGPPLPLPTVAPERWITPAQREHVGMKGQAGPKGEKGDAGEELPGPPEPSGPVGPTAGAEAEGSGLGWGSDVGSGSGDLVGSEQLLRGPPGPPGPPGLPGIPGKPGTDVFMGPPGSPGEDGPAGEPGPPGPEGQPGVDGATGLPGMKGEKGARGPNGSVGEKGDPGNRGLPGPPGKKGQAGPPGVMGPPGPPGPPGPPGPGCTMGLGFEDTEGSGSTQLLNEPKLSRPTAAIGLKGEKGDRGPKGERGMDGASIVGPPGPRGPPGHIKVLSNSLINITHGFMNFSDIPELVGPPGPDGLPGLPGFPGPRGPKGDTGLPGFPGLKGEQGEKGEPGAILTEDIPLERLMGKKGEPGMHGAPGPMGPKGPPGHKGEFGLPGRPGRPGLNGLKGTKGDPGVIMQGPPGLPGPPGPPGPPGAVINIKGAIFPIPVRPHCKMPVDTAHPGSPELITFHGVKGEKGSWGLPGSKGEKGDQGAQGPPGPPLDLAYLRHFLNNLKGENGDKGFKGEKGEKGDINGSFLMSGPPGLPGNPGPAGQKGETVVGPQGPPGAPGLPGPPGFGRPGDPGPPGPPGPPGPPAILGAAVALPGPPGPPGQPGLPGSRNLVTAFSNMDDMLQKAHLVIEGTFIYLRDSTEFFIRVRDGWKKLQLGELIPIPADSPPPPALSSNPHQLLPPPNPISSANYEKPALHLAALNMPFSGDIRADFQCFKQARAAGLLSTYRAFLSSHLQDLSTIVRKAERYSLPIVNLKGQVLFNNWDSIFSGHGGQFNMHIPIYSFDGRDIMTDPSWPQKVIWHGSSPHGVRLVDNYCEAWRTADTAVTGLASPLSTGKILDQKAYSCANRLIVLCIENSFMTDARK
UniProt P09497: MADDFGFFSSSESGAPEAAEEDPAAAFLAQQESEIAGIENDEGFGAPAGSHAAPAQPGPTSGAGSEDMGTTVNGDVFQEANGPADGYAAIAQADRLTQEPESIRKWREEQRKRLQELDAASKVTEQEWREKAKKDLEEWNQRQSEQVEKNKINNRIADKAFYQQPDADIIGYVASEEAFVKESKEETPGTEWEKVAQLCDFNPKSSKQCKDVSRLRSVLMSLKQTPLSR
UniProt Q14008: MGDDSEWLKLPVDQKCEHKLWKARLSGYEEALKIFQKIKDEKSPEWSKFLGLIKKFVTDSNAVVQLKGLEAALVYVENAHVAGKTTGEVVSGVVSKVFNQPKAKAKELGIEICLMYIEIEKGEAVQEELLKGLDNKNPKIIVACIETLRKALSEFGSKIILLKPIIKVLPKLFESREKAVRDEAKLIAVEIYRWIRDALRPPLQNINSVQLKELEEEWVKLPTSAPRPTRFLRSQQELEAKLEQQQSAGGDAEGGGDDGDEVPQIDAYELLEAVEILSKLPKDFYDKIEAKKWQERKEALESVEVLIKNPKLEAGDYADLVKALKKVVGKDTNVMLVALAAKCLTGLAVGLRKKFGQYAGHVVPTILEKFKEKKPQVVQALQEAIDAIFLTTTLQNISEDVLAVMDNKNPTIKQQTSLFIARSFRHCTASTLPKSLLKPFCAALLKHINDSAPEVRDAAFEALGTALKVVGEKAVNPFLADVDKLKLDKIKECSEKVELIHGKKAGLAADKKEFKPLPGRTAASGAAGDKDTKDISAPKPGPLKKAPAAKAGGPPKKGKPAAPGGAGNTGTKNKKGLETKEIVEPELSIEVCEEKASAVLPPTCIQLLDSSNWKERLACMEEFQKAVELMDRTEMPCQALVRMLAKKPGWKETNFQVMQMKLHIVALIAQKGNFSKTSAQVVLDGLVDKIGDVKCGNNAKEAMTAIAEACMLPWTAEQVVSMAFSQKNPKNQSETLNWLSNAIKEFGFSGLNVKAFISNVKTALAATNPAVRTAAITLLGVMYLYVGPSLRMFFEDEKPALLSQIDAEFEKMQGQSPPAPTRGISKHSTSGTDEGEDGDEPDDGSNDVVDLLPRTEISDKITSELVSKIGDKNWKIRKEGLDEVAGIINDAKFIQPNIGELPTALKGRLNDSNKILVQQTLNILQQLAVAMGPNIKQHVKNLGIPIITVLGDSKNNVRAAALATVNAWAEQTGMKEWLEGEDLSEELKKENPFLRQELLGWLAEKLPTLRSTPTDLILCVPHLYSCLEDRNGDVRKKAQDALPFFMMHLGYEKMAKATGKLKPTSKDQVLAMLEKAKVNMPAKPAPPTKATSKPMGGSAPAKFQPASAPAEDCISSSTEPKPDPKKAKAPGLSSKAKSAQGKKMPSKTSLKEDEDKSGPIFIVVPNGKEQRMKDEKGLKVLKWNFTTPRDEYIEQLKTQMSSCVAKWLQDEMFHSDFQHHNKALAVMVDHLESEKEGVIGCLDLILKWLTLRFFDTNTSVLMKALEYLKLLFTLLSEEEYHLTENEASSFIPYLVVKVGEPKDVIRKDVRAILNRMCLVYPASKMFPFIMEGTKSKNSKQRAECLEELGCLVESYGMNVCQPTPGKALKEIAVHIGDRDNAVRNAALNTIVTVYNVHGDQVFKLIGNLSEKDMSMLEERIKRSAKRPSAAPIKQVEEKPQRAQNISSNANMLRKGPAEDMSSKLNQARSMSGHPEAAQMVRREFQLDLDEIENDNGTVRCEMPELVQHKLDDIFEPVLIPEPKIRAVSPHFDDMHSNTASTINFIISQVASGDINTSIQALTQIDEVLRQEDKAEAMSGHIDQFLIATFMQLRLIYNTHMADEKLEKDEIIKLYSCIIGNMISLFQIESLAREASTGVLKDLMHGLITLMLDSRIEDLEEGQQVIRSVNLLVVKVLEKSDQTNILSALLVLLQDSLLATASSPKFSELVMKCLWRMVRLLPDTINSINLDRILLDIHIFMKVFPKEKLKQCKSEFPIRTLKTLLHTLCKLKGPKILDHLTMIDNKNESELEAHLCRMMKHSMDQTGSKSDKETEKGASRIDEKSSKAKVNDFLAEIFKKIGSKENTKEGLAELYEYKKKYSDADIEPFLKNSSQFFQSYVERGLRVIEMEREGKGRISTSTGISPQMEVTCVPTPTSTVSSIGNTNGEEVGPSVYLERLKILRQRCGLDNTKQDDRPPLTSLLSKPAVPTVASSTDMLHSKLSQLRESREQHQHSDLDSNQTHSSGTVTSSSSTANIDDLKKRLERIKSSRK
UniProt P54105: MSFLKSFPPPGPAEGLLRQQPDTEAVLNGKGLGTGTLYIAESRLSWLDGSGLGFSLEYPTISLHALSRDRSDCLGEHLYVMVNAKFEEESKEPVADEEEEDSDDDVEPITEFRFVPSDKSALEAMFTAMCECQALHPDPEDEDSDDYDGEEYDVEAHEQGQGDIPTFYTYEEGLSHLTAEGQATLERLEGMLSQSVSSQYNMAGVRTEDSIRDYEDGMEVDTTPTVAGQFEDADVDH
UniProt Q8NFW8: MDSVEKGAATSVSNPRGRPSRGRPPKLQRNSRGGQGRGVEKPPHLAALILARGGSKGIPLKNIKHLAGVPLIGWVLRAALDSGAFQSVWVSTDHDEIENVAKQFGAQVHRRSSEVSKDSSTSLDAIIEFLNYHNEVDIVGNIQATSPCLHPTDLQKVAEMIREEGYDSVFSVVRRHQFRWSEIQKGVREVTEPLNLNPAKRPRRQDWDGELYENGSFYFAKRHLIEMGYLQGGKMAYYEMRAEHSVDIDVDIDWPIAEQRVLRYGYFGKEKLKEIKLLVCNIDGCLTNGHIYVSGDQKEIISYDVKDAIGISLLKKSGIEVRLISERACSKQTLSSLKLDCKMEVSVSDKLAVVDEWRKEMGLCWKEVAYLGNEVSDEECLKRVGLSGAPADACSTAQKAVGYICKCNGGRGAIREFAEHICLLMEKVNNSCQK
UniProt Q16740, whole entry, looked up: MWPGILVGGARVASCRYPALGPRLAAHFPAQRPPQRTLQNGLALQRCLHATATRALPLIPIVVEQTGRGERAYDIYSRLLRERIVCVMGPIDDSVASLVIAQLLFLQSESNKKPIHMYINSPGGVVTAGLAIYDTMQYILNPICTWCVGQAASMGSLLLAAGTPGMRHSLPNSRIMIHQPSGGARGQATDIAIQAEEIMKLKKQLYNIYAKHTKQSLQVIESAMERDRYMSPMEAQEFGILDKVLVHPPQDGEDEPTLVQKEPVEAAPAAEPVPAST
UniProt Q96KA5: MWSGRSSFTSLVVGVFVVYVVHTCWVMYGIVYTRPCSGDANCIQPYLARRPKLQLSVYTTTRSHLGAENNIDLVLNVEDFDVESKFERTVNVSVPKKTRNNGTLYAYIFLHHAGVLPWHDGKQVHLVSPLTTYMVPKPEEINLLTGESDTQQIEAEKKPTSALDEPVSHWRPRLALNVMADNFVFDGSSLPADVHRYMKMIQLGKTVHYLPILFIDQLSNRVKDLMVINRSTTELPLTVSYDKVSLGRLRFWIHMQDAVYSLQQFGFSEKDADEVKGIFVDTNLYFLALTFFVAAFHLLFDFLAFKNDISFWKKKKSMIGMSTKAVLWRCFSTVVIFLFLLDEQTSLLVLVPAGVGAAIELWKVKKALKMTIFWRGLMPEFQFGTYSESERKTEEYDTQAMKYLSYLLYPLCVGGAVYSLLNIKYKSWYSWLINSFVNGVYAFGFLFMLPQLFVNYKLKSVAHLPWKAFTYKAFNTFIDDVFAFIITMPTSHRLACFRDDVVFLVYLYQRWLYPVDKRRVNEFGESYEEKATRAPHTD
UniProt Q9NRP2: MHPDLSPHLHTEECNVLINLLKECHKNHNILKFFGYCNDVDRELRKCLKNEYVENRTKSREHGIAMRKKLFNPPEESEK
UniProt Q8N5K1: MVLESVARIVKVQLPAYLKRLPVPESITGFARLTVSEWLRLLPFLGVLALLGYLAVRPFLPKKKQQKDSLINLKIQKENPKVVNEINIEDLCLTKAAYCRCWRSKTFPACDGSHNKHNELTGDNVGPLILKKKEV
UniProt Q92600, whole entry, looked up: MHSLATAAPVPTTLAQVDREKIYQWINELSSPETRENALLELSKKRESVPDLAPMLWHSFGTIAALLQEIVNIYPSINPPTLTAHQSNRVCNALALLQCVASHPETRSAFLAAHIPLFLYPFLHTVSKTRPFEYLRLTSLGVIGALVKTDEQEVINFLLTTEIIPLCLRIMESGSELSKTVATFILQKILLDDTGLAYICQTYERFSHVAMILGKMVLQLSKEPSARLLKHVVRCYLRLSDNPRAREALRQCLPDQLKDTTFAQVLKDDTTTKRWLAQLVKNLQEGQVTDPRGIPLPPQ

compound: CC[C@H](C)N1C=C(C2=C(C=C(C=C21)C3=CN=C(C=C3)N4CCNCC4)C(=O)NCC5=C(C=C(NC5=O)C)C)C; assay: log2 fold change, soluble protein after heating vs DMSO (PISA); higher = thermal stabilisation; K562 cells, 10 uM, 30 min; active = over 0.2 and 3.5 SD of the protein, either way, in both replicates (recomputed)
In short: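 Soluble protein was quantified by TMTpro 16plex LC-MS/MS after channel sums were equalised. It was obtained as the supernatant after 21,000xg for 90 min from pooled aliquots of K562 cells (2×10^6 cells/mL, 10 μM compound, 30 min) heated for 3 min across 48°C-58°C and extracted in PBS with 0.5% NP-40 at 4°C. Thermal stability values are relative to control samples and come from duplicates. They are given as log2 fold changes.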

log2 fold change, inactive:
CISD3 (UniProt P0C7P0) -0.049, CLTA isoform 2 (UniProt P09496) -0.158, CMSS1 (UniProt Q9BQ75) -0.023, CNOT8 (UniProt Q9UFF9) 0.051, COA3 (UniProt Q9Y2R0) -0.074, CKB (UniProt P12277) 0.008, CNP (UniProt P09543) -0.008, CNOT6L (UniProt Q96LI5) -0.059, COL15A1 (UniProt P39059) -0.042, CLCN7 (UniProt P51798) 0.031, CLEC16A (UniProt Q2KHT3) -0.016, CLTB (UniProt P09497) -0.102, COA7 (UniProt Q96BR5) 0.017, CLASP1 (UniProt Q7Z460) 0.114, CNTN4 (UniProt Q8IWV2) -0.084, CKAP5 (UniProt Q14008) 0.122, CNOT10 isoform 6 (UniProt Q9H9A5) 0.083, CLIC1 (UniProt O00299) 0.025, CLNS1A (UniProt P54105) 0.01, CMAS (UniProt Q8NFW8) -0.048, CKMT1A (UniProt P12532) -0.022, CLIP1 isoform 1 (UniProt P30622) -0.032, CIAO2A (UniProt Q9H5X1) -0.017, CNBP isoform 6 (UniProt P62633) -0.037, CMPK1 (UniProt P30085) 0.002, CLPP (UniProt Q16740) -0.045, CLPTM1L (UniProt Q96KA5) 0.005, CMC2 (UniProt Q9NRP2) 0.048, CISD2 (UniProt Q8N5K1) -0.043, CMTM6 (UniProt Q9NX76) -0.146, CISD1 (UniProt Q9NZ45) -0.01, CLPB isoform 2 (UniProt Q9H078) 0.006, CNOT9 isoform 2 (UniProt Q92600) 0.024
